Laboratory results reported in patent publication US11339442B2, “Methods of detecting insulator dysfunction and oncogene activation for screening, diagnosis and treatment of patients in need thereof” (THE GENERAL HOSPITAL CORPORATION, priority 2015, dated 2022).
At least one structure is not confirmed: it was looked up by name or label, or the drawing left a doubt.

Test system: GSC6 gliomaspheres
Experiment: Cell growth assay (CellTiter-Glo), GSC6 cells expressing CRISPR
Assay type: cell-based, human
Settings: 1 μM Dasatinib or 500 nM Crenolanib
Description: Cell Growth Assay—For the cell growth assay, 2,500 dissociated viable GSC6 cells expressing CRISPR and either GFP or Insulator targeting sgRNA (see above) were plated in […], of media in an opaque-walled tissue culture 96 well plate, in 1 μM Dasatinib, 500 nM Crenolanib, or equivalent DMSO (1:10,000) as a vehicle control. Cell growth was analyzed at days 3, 5, and 7 for Dasatinib, or days 3, 7, and 10 for Crenolanib, using CellTiter-Glo® reagent (Promega™) following the manufacturer's protocol. Data was normalized across days using an ATP standard curve.

Cc1nc(Nc2ncc(C(=O)Nc3c(C)cccc3Cl)s2)cc(N2CCN(CCO)CC2)n1 [dasatinib]
effect on the growth advantage of insulator CRISPR gliomaspheres: abrogated
